“And” between values parts separate entries of the source, which are not always exact repeats. Equal values may be shown once. The list shows a part of the results. Most values come without repeats; read them as rough.

The subject of the test is MEPP (mouse ovarian epithelium Trp53/Pten KO). The test can be described thus: cell viability relative to untreated (fraction); higher = less growth inhibition. As to conditions: 5 µM; 3 days.
For `Cn1c(=O)c2c(ncn2CC(=O)O)n(C)c1=O`, the cell viability is 0.837.
On to `O=C1C[C@@H](C(=O)O)NC(=O)N1`, for which the cell viability was 0.955.
As to `O=C(Oc1cc(S(=O)(=O)c2ccccc2)ccc1[N+](=O)[O-])c1ccc(Cl)cc1`, the cell viability was 0.818.
For `CO[C@@H]1[C@H](OC(=O)/C=C/C=C/C=C/C=C/C(=O)O)CC[C@]2(CO2)[C@H]1[C@@]1(C)O[C@@H]1CC=C(C)C`, the cell viability worked out at 0.802.
For `CC(C)NCC(O)c1ccc(O)c(O)c1` (stereo unspecified), the cell viability was 1.01 and 1.04.
With `CC1(C)S[C@@H]2[C@H](NC(=O)[C@H](N)c3ccccc3)C(=O)N2[C@H]1C(=O)OCOC(=O)[C@@H]1N2C(=O)C[C@H]2S(=O)(=O)C1(C)C`, the cell viability is 0.878 and 0.998.
Turning to `Cc1ccccc1C(=O)O`, the cell viability came out at 1.1.
The compound `CNC1CCCN(c2c(F)cc3c(=O)c(C(=O)O)cn(C4CC4)c3c2OC)C1` (stereo unspecified) gave a cell viability of 1.1.
Regarding `CCC(C)C(NC(=O)C(C(C)CC)N(C)C(C)=O)C(=O)NC(C(=O)NC(CC(C)C)C(=O)C1(C)CO1)C(C)O` (stereo unspecified), the cell viability was determined as 0.636.
In turn, `COc1ccc(Cc2cnc(N)nc2N)cc1OC` gave a cell viability of 1.18.
In turn, `OC[C@H]1O[C@H](OC[C@H]2O[C@H](O[C@]3(CO)O[C@H](CO)[C@@H](O)[C@@H]3O)[C@H](O)[C@@H](O)[C@@H]2O)[C@H](O)[C@@H](O)[C@H]1O` displayed a cell viability of 1.05.
For `CC[C@H](C)C(=O)O[C@H]1C[C@@H](C)C=C2C=C[C@H](C)[C@H](CC[C@@H]3C[C@@H](O)CC(=O)O3)[C@H]21`, the cell viability amounted to 0.917.
With `C[C@H](O)[C@@H](O)[C@@H](O)[C@H](O)C=O` the figure was 0.915; with `CC(C)(O)C(=O)O`, 1.01.
Compound `Cc1ccc2oc(=O)ccc2c1` showed a cell viability of 0.888.
Take `Cc1cc(O)cc(O)c1`: the cell viability worked out at 1.23.
For `CC1=CC(=O)CC(C)(C)C1(O)/C=C/C(C)=C\C(=O)O` (stereo unspecified), the cell viability came out at 0.862.
Take `NC(=O)N1c2ccccc2CC(=O)c2ccccc21`: the cell viability was found to be 0.85.
With `OC[C@H]1OC(O)[C@@H](O)[C@@H](O)[C@@H]1O` (stereo partly specified) the figure was 0.988.
`CN[C@H](CC(C)C)C(=O)N[C@H]1C(=O)N[C@@H](CC(N)=O)C(=O)N[C@H]2C(=O)N[C@H]3C(=O)N[C@H](C(=O)N[C@H](C(=O)O)c4cc(O)cc(O)c4-c4cc3ccc4O)[C@H](O)c3ccc(c(Cl)c3)Oc3cc2cc(c3O[C@@H]2O[C@H](CO)[C@@H](O)[C@H](O)[C@H]2O[C@H]2C[C@](C)(N)[C@H](O)[C@H](C)O2)Oc2ccc(cc2Cl)[C@H]1O` displayed a cell viability of 0.896.
In the case of `O=C1O[C@@H]2[C@@H](OC(=O)c3cc(O)c(O)c(O)c3-c3c1cc(O)c(O)c3O)[C@H](O)O[C@@H]1COC(=O)c3cc(O)c(O)c(O)c3-c3c(O)c(O)c4oc(=O)c5c(c(O)c(O)c6oc(=O)c3c4c65)-c3c(cc(O)c(O)c3O)C(=O)O[C@@H]21`, the cell viability came out at 1.28.
As to `NCCCC(N)C(=O)O` (stereo unspecified), the cell viability was determined as 1.18.
For `CN1CCN(c2c(F)cc3c(=O)c(C(=O)O)cn4c3c2OCN4C)CC1`, the cell viability stood at 0.873.
Consider `Cc1cnc(C)cn1`, for which the cell viability is 1.12.
The compound `CC(O)C(=O)O` (stereo unspecified) came in with a cell viability of 1.63.
`C=CC1=C(C)/C(=C/c2[nH]c(Cc3[nH]c(/C=C4\NC(=O)C(C)=C4C=C)c(C)c3CCC(=O)O)c(CCC(=O)O)c2C)NC1=O` had a cell viability of 1.14.
With `CCCC(N)C(=O)O` (stereo unspecified), the cell viability is 1.02.
For `O=C(/C=C/c1ccc(O[C@@H]2O[C@H](CO)[C@@H](O)[C@H](O)[C@H]2O)cc1)c1ccc(O)cc1O`, the cell viability was found to be 1.13.
As for `O=C[C@H](O)[C@H]1OC(=O)[C@@H](O)[C@H]1O`, the cell viability stood at 1.53.
As to `C[C@@]1(F)[C@H](O)[C@@H](CO)O[C@H]1n1ccc(=O)[nH]c1=O`, the cell viability is 0.953.
With `C/C1=C\CC(C)(C)/C=C/C(=O)/C(C)=C/CC1` the figure was 1.06.
The compound `CC1OC(OC2C(OC3CCC4(C)C(CCC5(C)C4CC=C4C6CC(C)(C)CCC6(C(=O)OC6OC(COC7OC(CO)C(O)C(O)C7O)C(O)C(O)C6O)CCC45C)C3(C)CO)OCC(O)C2O)C(O)C(O)C1O` (stereo unspecified) displayed a cell viability of 1.03.
With `CC(/C=C/C=C(\C)C(=O)O[C@@H]1O[C@H](CO[C@@H]2O[C@H](CO)[C@@H](O)[C@H](O)[C@H]2O)[C@@H](O)[C@H](O)[C@H]1O)=C\C=C\C=C(C)\C=C\C=C(/C)C(=O)O[C@@H]1O[C@H](CO[C@@H]2O[C@H](CO)[C@@H](O)[C@H](O)[C@H]2O)[C@@H](O)[C@H](O)[C@H]1O`, the cell viability amounted to 1.07.
Regarding `Cc1cc(O)cc(O[C@@H]2O[C@H](CO)[C@@H](O)[C@H](O)[C@H]2O)c1`, the cell viability worked out at 0.858.
For `CC(=O)CCCCn1c(=O)c2c(ncn2C)n(C)c1=O`, the cell viability came to 0.983.
As for `CC[C@H]1OC(=O)C[C@@H](O)[C@H](C)[C@@H](O[C@@H]2O[C@H](C)[C@@H](O[C@H]3C[C@@](C)(O)[C@@H](O)[C@H](C)O3)[C@H](N(C)C)[C@H]2O)[C@@H](CC=O)C[C@@H](C)C(=O)/C=C/C(C)=C/[C@@H]1CO[C@@H]1O[C@H](C)[C@@H](O)[C@@H](OC)[C@H]1OC`, the cell viability amounted to 0.897.

Source of the values: the supplement of paper PMC12873370.
